The structures appear in SMILES notation. The list shows a part of the results. Single values are uncertain, as repeats are few or missing.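 Imaging used 1,536-well plates; nuclei positive for cleaved PARP by antibody were divided by total DNA-stained nuclei to yield the apoptosis fraction. Doses for screening kept most cells viable, and cell lines differ markedly in resting and induced cleaved-PARP levels.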

For the assay, the system named is UACC62. Briefly: cleaved PARP positive nuclei fraction relative to DMSO control; melanoma cells; higher = more apoptosis. As to conditions: library dose: low library concentration; 72 h.
Consider `C=C(c1ccc(C(=O)O)cc1)c1cc2c(cc1C)C(C)(C)CCC2(C)C` [Bexarotene] + CC(C)(C)c1cnc(CSc2cnc(NC(=O)C3CCNCC3)s2)o1 [SNS-032] (first compound 2 µM, partner dose 0.01 µM), for which the “cleaved PARP positive nuclei fraction” value stood at 68.1%. Consider `Cc1cc(Nc2cc(N3CCN(C)CC3)nc(/C=C/c3ccccc3)n2)n[nH]1` + COc1cc(N2CCC(N3CCN(C)CC3)CC2)ccc1Nc1ncc(Cl)c(Nc2ccccc2S(=O)(=O)C(C)C)n1 [NVP-TAE684] (first compound 0.04 µM, partner dose 0.08 µM), for which the “cleaved PARP positive nuclei fraction” value was determined as 28.8%. Next, `O=C(O)c1ccc2c(c1)nc(Nc1cccc(Cl)c1)c1ccncc12` + Oc1nc(-c2ccc(C(F)(F)F)cc2)nc2c1CSCC2 [XAV939] (first compound 0.4 µM, partner dose 2 µM): 103%. Under `Nc1ccn([C@@H]2O[C@H](CO)[C@@H](O)C2(F)F)c(=O)n1` [gemcitabine] + COC(=O)c1sccc1S(=O)(=O)Nc1ccc(Nc2ccccc2)cc1OC [GSK0660] (first compound 0.0004 µM, partner dose 1 µM) stands 126%; under `CNC(=O)c1cc(Oc2ccc(NC(=O)Nc3ccc(Cl)c(C(F)(F)F)c3)cc2)ccn1` [sorafenib] + CC(C)(C)c1cnc(CSc2cnc(NC(=O)C3CCNCC3)s2)o1 [SNS-032] (first compound 0.4 µM, partner dose 0.01 µM), 55%.

Consider `Nc1ccn([C@@H]2O[C@H](CO)[C@@H](O)C2(F)F)c(=O)n1` [gemcitabine] + OCCn1cc(-c2cnc3nnn(Cc4ccc5ncccc5c4)c3n2)cn1 [PF04217903] (first compound 0.0004 µM, partner dose 1 µM), for which the “cleaved PARP positive nuclei fraction” value came out at 151%.

As to `C=C(c1ccc(C(=O)O)cc1)c1cc2c(cc1C)C(C)(C)CCC2(C)C` [Bexarotene] + Cc1ccc(NC(=O)c2cccc(N(C)C)c2)cc1NC(=O)c1ccc(O)cc1 [ZM336372] (first compound 2 µM, partner dose 2 µM), the “cleaved PARP positive nuclei fraction” value is 95.9%.

For the compound `Nc1nc(F)nc2c1ncn2[C@@H]1O[C@H](CO)[C@@H](O)[C@@H]1O` [fludarabine] + C=CCn1c(=O)c2cnc(Nc3ccc(N4CCN(C)CC4)cc3)nc2n1-c1cccc(C(C)(C)O)n1 [MK1775] (first compound 0.2 µM, partner dose 0.02 µM), the “cleaved PARP positive nuclei fraction” value was 140%. Next, `Cc1cc(Nc2cc(N3CCN(C)CC3)nc(/C=C/c3ccccc3)n2)n[nH]1` + Cn1cc(/C=C2\C(=O)Nc3cccnc32)c2ccccc21 [GW441756] (first compound 0.04 µM, partner dose 0.4 µM): 51.9%; `CC(C)C[C@H](NC(=O)[C@H](Cc1ccccc1)NC(=O)c1cnccn1)B(O)O` [Bortezomib] + c1cc(-c2cnn3cc(-c4ccc(OCCN5CCCCC5)cc4)cnc23)ccn1 [Dorsomorphin] (first compound 0.001 µM, partner dose 0.4 µM): 199%; `Nc1ncn([C@H]2C[C@H](O)[C@@H](CO)O2)c(=O)n1` [decitabine] + Cc1cc([N+](=O)[O-])ccc1NS(=O)(=O)c1cc(Cl)ccc1Cl [FH535] (first compound 0.1 µM, partner dose 1 µM): 137%. Next, `Nc1ncn([C@H]2C[C@H](O)[C@@H](CO)O2)c(=O)n1` [decitabine] + O=C(Nc1cccc(Cl)c1)Nc1ncc(CCNc2ncnc3ccsc23)s1 [SNS314] (first compound 0.1 µM, partner dose 0.0008 µM): 56.7%; `CS(=O)(=O)CCNCc1ccc(-c2ccc3ncnc(Nc4ccc(OCc5cccc(F)c5)c(Cl)c4)c3c2)o1` [lapatinib] + COc1ccc2c(c1)CCC1C2CCC2(C)C(NCCCCCCN3C(=O)C=CC3=O)CCC12 [U73122] (first compound 0.8 µM, partner dose 0.4 µM): 125%. Next, `Cc1cc(Nc2cc(N3CCN(C)CC3)nc(/C=C/c3ccccc3)n2)n[nH]1` + CCCCCCCCCCCC1=C(O)C(=O)C=C(O)C1=O [Embelin] (first compound 0.04 µM, partner dose 1.2 µM): 145%; `C[C@@H](Oc1cc(-c2cnn(C3CCNCC3)c2)cnc1N)c1c(Cl)ccc(F)c1Cl` [Crizotinib] + Cc1cc([N+](=O)[O-])ccc1NS(=O)(=O)c1cc(Cl)ccc1Cl [FH535] (first compound 0.2 µM, partner dose 1 µM): 168%; `Nc1ccn([C@@H]2O[C@H](CO)[C@@H](O)C2(F)F)c(=O)n1` [gemcitabine] + O=C(Nc1cccc(Cl)c1)Nc1ncc(CCNc2ncnc3ccsc23)s1 [SNS314] (first compound 0.0004 µM, partner dose 0.0008 µM): 121%.

In the case of `O=C(O)[C@@H]1[O][Sb](=[O])([O][Sb]2(=[O])[O][C@H]([C@H](O)CO)[C@H](O)[C@H](C(=O)O)[O]2)[O][C@H]([C@H](O)CO)[C@@H]1O` (stereo partly specified) [stibogluconate] + CC(C)CCN1c2nc(Nc3cc(F)c(O)c(F)c3)ncc2N(C)C(=O)C1C [BID1870] (first compound 2 µM, partner dose 0.2 µM), the “cleaved PARP positive nuclei fraction” value is 108%.

Regarding `C=C(c1ccc(C(=O)O)cc1)c1cc2c(cc1C)C(C)(C)CCC2(C)C` [Bexarotene] + COc1ccc2c(c1)CCC1C2CCC2(C)C(NCCCCCCN3C(=O)C=CC3=O)CCC12 [U73122] (first compound 2 µM, partner dose 0.4 µM), the “cleaved PARP positive nuclei fraction” value was determined as 140%. Next, `C=C(c1ccc(C(=O)O)cc1)c1cc2c(cc1C)C(C)(C)CCC2(C)C` [Bexarotene] + Oc1nc(-c2ccc(C(F)(F)F)cc2)nc2c1CSCC2 [XAV939] (first compound 2 µM, partner dose 2 µM): 63.9%.

For the compound `CS(=O)(=O)CCNCc1ccc(-c2ccc3ncnc(Nc4ccc(OCc5cccc(F)c5)c(Cl)c4)c3c2)o1` [lapatinib] + NC(=O)Nc1cc(-c2cccc(F)c2)sc1C(=O)N[C@H]1CCCNC1 [AZD7762] (first compound 0.8 µM, partner dose 0.02 µM), the “cleaved PARP positive nuclei fraction” value was found to be 59.9%. Under `O=C(O)[C@@H]1[O][Sb](=[O])([O][Sb]2(=[O])[O][C@H]([C@H](O)CO)[C@H](O)[C@H](C(=O)O)[O]2)[O][C@H]([C@H](O)CO)[C@@H]1O` (stereo partly specified) [stibogluconate] + CN(NC(=O)CC(=O)NN(C)C(=S)c1ccccc1)C(=S)c1ccccc1 [STA4783] (first compound 2 µM, partner dose 0.006 µM) stands 199%. Under `CCCS(=O)(=O)Nc1ccc(F)c(C(=O)c2c[nH]c3ncc(Cl)cc23)c1F` + COc1ccc(COc2ccc(Cc3cnc(N)nc3N)cc2OC)cc1 [GW2580] (first compound 0.08 µM, partner dose 1 µM) stands 108%; under `Nc1ncn([C@H]2C[C@H](O)[C@@H](CO)O2)c(=O)n1` [decitabine] + CCc1ccc(CCOc2ccc(CC3SC(=O)NC3=O)cc2)nc1 [pioglitazone] (first compound 0.1 µM, partner dose 2 µM), 95.7%. Next, `CN1CCN(c2ccc3nc(-c4c(N)c5c(F)cccc5[nH]c4=O)[nH]c3c2)CC1` [Dovitinib] + CN(NC(=O)CC(=O)NN(C)C(=S)c1ccccc1)C(=S)c1ccccc1 [STA4783] (first compound 0.1 µM, partner dose 0.006 µM): 282%; `Nc1ccn([C@@H]2O[C@H](CO)[C@@H](O)C2(F)F)c(=O)n1` [gemcitabine] + O=c1cc(-c2cccc3c2Sc2ccccc2S3)oc(N2CCOCC2)c1 [KU55933] (first compound 0.0004 µM, partner dose 1 µM): 51.6%; `CCCS(=O)(=O)Nc1ccc(F)c(C(=O)c2c[nH]c3ncc(Cl)cc23)c1F` + COc1cc(Nc2ncc(F)c(Nc3ccc4c(n3)NC(=O)C(C)(C)O4)n2)cc(OC)c1OC [Tamatinib] (first compound 0.08 µM, partner dose 0.4 µM): 192%. `Cn1c(=O)n(-c2ccc(C(C)(C)C#N)cc2)c2c3cc(-c4cnc5ccccc5c4)ccc3ncc21` + Oc1cc(-c2nc(-c3ccccc3)[nH]c2-c2ccncc2)ccc1Cl [L779450] (first compound 0.004 µM, partner dose 0.2 µM): the “cleaved PARP positive nuclei fraction” value is 462%. Regarding `CN1CCN(c2ccc3nc(-c4c(N)c5c(F)cccc5[nH]c4=O)[nH]c3c2)CC1` [Dovitinib] + COc1ccc(COc2ccc(Cc3cnc(N)nc3N)cc2OC)cc1 [GW2580] (first compound 0.1 µM, partner dose 1 µM), the “cleaved PARP positive nuclei fraction” value was determined as 102%. Consider `C=C(c1ccc(C(=O)O)cc1)c1cc2c(cc1C)C(C)(C)CCC2(C)C` [Bexarotene] + CCc1ccc(CCOc2ccc(CC3SC(=O)NC3=O)cc2)nc1 [pioglitazone] (first compound 2 µM, partner dose 2 µM), for which the “cleaved PARP positive nuclei fraction” value was found to be 83.3%.

On to `Cc1cc(Nc2cc(N3CCN(C)CC3)nc(/C=C/c3ccccc3)n2)n[nH]1` + CC(C)CCN1c2nc(Nc3cc(F)c(O)c(F)c3)ncc2N(C)C(=O)C1C [BID1870] (first compound 0.04 µM, partner dose 0.2 µM), for which the “cleaved PARP positive nuclei fraction” value was 210%. As to `CN1CCN(c2ccc3nc(-c4c(N)c5c(F)cccc5[nH]c4=O)[nH]c3c2)CC1` [Dovitinib] + CN(C)S(=O)(=O)c1ccc2c(c1)/C(=C/c1cc3c([nH]1)CCCC3)C(=O)N2 [SU6656] (first compound 0.1 µM, partner dose 0.4 µM), the “cleaved PARP positive nuclei fraction” value is 83.2%.

(Values after the supplement of paper PMC4604168 (melanoma cell lines).)
